# Measurements as given in the supplement of paper PMC8426693.
# This is one part of the list.
# Test system: SARS-CoV-2 5_SL7 RNA
# Experiment: NMR binding call after quantification (hit when 2 of 3 NMR criteria are met) (binary (1 = binding, 0 = not binding)); higher = binding
# Conditions: RNA concentration 10 µM; fragment concentration 200 µM; 293 K
row,Structure (SMILES),NMR binding call
1,c1csc(-c2nnc[nH]2)n1,0
2,Cn1nccc1C(=O)NCc1cccs1,0
3,CCNC(=O)Nc1cc(C)on1,0
4,Cc1nnc(CN2CCC=C(F)C2)s1,0
5,CC(=O)Nc1ccc(C)c2c1CCCN2,0
6,CC(=O)Nc1cnccc1C,0
7,Cn1nnc(NC(=O)c2ccc(F)cc2)n1,0
8,CCOC(=O)C1CCN(c2cnccn2)CC1,0
9,CC(=O)N1CC2CCC1c1ccccc12 (stereo not drawn),0
10,Cc1ccccc1CC(N)=O,0
11,CNC(=O)CNc1ncnc2sccc12,0
12,CC(O)CNCc1c(Cl)cccc1Cl (stereo not drawn),0
13,COc1cccc(C(N)CC(=O)O)c1 (stereo not drawn),0

# Test system: SARS-CoV-2 5_SL8 RNA
# Experiment: as above
# Conditions: RNA concentration 10 µM; fragment concentration 200 µM; 293 K
row,Structure (SMILES),NMR binding call
1,CC(=O)Nc1ccc(NC(=O)CC(C)C)cc1,0
2,COc1ccc(CN2CCOCC2)cc1OC,0
3,CC1CC1C(=O)NCCc1ccc(Cl)cc1 (stereo not drawn),0
4,CNC(=O)CN1CCNCC1,0
5,N#Cc1cccc(NC(=O)CCC2CCCC2)c1,0
6,COCc1nnc(N)s1,0
7,COc1cccc(C(=O)Nc2ccccc2F)c1,0
8,CC(C)C(=O)NCC1CCCNC1 (stereo not drawn),0
9,CC(=O)NCCc1ccc(S(N)(=O)=O)cc1,0
10,Cc1cc(C(=O)NC(C)C)nn1C,0
11,CCCn1c(NC(=O)CC)nc2ccccc21,0
12,Cn1cc(Oc2ncncc2Cl)cn1,0
13,NCc1ccccc1OC(F)(F)F,0
14,CC(=O)N1CCCC(C(N)=O)C1 (stereo not drawn),0
15,CS(=O)(=O)NC1(C(=O)O)CCCCC1,0
16,CCOc1ccc(NC(=O)c2cnccn2)cc1,0
17,Cn1nc(C(N)=O)c2ccccc21,0
18,O=C(NCC1CCCO1)N1CCOCC1 (stereo not drawn),0
19,CC(C)Nc1nc2ccccc2[nH]1,0
20,COc1cc(CN)cc(OC)c1OC.Cl,0

row,Structure (SMILES),NMR binding call
1,COc1ccc(NC2=NCCN2)cc1,0
2,CC1CCOC1C(=O)Nc1cnns1 (stereo not drawn),0
3,CC(C)N(C)c1ncnc2c1cnn2C,0
4,CCOC(=O)c1ccoc1,0
5,CC(NC1CC1)c1cccnc1 (stereo not drawn),0
6,COc1ccc(NC(=O)Nc2cccs2)cn1,0
7,Cc1nc(CN2CC(F)CC2CN)cs1 (stereo not drawn),0
8,c1csc(-c2nnc[nH]2)n1,0
9,Cn1nccc1C(=O)NCc1cccs1,0
10,CCNC(=O)Nc1cc(C)on1,0
11,Cc1nnc(CN2CCC=C(F)C2)s1,0
12,CC(=O)Nc1ccc(C)c2c1CCCN2,0
13,CC(=O)Nc1cnccc1C,0
14,Cn1nnc(NC(=O)c2ccc(F)cc2)n1,0
15,CCOC(=O)C1CCN(c2cnccn2)CC1,0
16,CC(=O)N1CC2CCC1c1ccccc12 (stereo not drawn),0
17,Cc1ccccc1CC(N)=O,0
18,CNC(=O)CNc1ncnc2sccc12,0
19,CC(O)CNCc1c(Cl)cccc1Cl (stereo not drawn),0
20,COc1cccc(C(N)CC(=O)O)c1 (stereo not drawn),0
